Experiment: HPLC analysis for reversible addition of BME

Cc1cccc(/C=C(\C#N)C(=O)N[C@@H]2CCN(c3c(Cl)cnc4[nH]c(-c5ccc(N6CCN(C)CC6)cc5)nc34)C2)n1 [Compound 13h, (R,E)-N-(1–(6-chloro-2–(4-(4-methylpiperazin-1-yl)phenyl)-3H-imidazo[4,5-b]pyridin-7-yl)pyrrolidin-3-yl)-2-cyano-3-(6-methylpyridin-2-yl)acrylamide]
conversion to the BME adduct (48 mM BME in PBS pH 7.4 / DMSO, after 30 min): full conversion to the BME adduct | reversibility of BME adduct formation (adduct mixture diluted 10-fold, HPLC and HRMS): gradually reverted to 13h

Source: PMC7594721, “Synthesis and biological activity of 2-cyanoacrylamide derivatives tethered to imidazopyridine as TAK1 inhibitors” (Journal of Enzyme Inhibition and Medicinal Chemistry, 2020)
